From PubChem BioAssay AID2685 (National Center for Advancing Translational Sciences (NCATS), 2010)
Some of the results follow. Shown are side measurements of this screen, not its main read-out; they come without a call. Compounds called inactive in the main read-out are mostly missing here. The note in brackets gives the kind of curve behind each potency; many fits are weak.

Experiment: qHTS Assay for Lipid Storage Modulators in Drosophila S3 Cells;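 for cell number change: cells counted by Cell Tracker Red CMTPX staining in the red channel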
Conditions: BODIPY lipid droplet fluorescence, 18-24 h; for cell number change: measured here: cell count max response, cells fed with added oleic acid
Outline: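 Drosophila S3 cells loaded with oleic acid (400 uM, as added) and compounds at several concentrations; lipid droplets imaged by 488-nm laser-scanning cytometry, 500–530 nm intensity and object ratio to cell channel. Percent activity normalized to 20 uM Triacsin C.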

[1] = measured here: lipid fluorescence (Fed channel) AC50, cells fed with added oleic acid
[2] = measured here: cell number channel AC50, cells fed with added oleic acid

Row | SMILES | cell number change [%] | AC50 [1] | AC50 [2]
1 | Cc1cc(N)n(-c2ccccc2)n1 | -6.41 | 0.411 µM [falling, full curve, poor fit] | 
2 | CN=C(c1ccc(C)cc1)n1c(=S)nc(-c2ccc(C)cc2)n(C)c1=S | -48.2 | 18.4 µM [falling, single point] | 29.1 µM [falling, single point]
3 | COc1ccc(N/N=C(/C#N)S(=O)(=O)c2nsc(C)c2C#N)cc1 |  | 1.46 µM [rising, partial curve, poor fit] | 1.64 µM [rising, partial curve, poor fit]
4 | C=CCNC(=S)NNC(=O)c1ccc(=O)n(Cc2ccc(Cl)cc2Cl)c1 | 19.8 | 0.00461 µM [rising, full curve, poor fit] | 0.0058 µM [rising, full curve, poor fit]
5 | O=C(NC1CCN(Cc2ccc(F)cc2)CC1)c1ccccc1 | 3.42 | 2.59 µM [rising, full curve] | 
6 | CCCCNC(=O)c1onc(CSc2ccc(C)c(C)c2)c1C(=O)O | 4.97 | 6.51 µM [falling, single point] | 
7 | COc1cccc(OCc2cc(C(=O)N3CCN(C4CCCCC4)C(=O)C3)no2)c1 | -9.85 |  | 
8 | COc1ccc(OC)c(CCNC(=O)CN2C(=O)COc3ccc(S(=O)(=O)N4CCOCC4)cc32)c1 | -8.56 |  | 
9 | CC(C)NC(=O)NNc1c(Cl)cncc1Cl | -9.89 | 6.51 µM [falling, single point] | 
10 | CCc1ccc(N=C2NC(=O)/C(=C/c3cc(OC)c(O)c(OC)c3)S2)cc1 | -84.2 | 23.1 µM [falling, single point] | 
11 | Cc1ccc(S(=O)(=O)Nc2ccncc2)c(C)c1 | 17 | 29.1 µM [falling, single point] | 
12 | Cn1c(=O)[nH]c(=O)c2c1nc(N1CCC(Cc3ccccc3)CC1)n2Cc1ccccc1 | -37.7 |  | 9.2 µM [falling, partial curve, poor fit]
13 | Cc1nnc(NC(=O)C2CCCCC2)s1 | 6.42 | 0.651 µM [falling, single point] | 
14 | CCN(CC(=O)Nc1ccc(NC(C)=O)cc1)C(=O)c1cc(C)on1 | -16.7 | 4.11 µM [falling, partial curve] | 3.26 µM [falling, partial curve, poor fit]
15 | COc1cccc(C2(O)CCN(CC(=O)NCC3CC3)CC2)c1 | 15.2 | 0.58 µM [falling, single point] | 
16 | O=C(c1ccco1)N1CCC(c2nc(-c3ccc(F)cc3)no2)CC1 | -152 | 0.82 µM [falling, full curve, poor fit] | 18.4 µM [falling, partial curve]
17 | COc1ccccc1/C=C\C(=O)NCC(=O)N/N=C(\C)Cc1ccccc1 | -7.9 | 0.461 µM [falling, partial curve, poor fit] | 
18 | CS(=O)(=O)c1ncc(Cl)c(C(=O)Nc2ccc(OC(F)F)cc2)n1 |  | 14.6 µM [falling, partial curve] | 
19 | CC1Cc2cc(S(=O)(=O)N3CCN(c4ccccc4F)CC3)ccc2N1C(=O)C1CC1 (stereo unspecified) | 12.6 | 7.31 µM [falling, partial curve] | 

Part of the list above in a different format.
Row	SMILES	cell number change [%]	AC50 [1]	AC50 [2]
5	O=C(NC1CCN(Cc2ccc(F)cc2)CC1)c1ccccc1	3.42	2.59 µM [rising, full curve]	
6	CCCCNC(=O)c1onc(CSc2ccc(C)c(C)c2)c1C(=O)O	4.97	6.51 µM [falling, single point]	
7	COc1cccc(OCc2cc(C(=O)N3CCN(C4CCCCC4)C(=O)C3)no2)c1	-9.85		

The listing continues:

Row | SMILES | cell number change [%] | AC50 [1] | AC50 [2]
20 | CCc1nc2ccccc2n1Cc1ccccc1OC | 31.6 | 29.1 µM [falling, single point] | 32.6 µM [rising, single point]
21 | O=C(N/N=C/C=N/NC(=O)c1ccco1)c1ccco1 | 3.24 | 4.61 µM [rising, partial curve] | 
22 | CNC(=O)c1ccc(N(Cc2ccccc2C)S(C)(=O)=O)cc1 | 8.41 | 4.11 µM [falling, single point] | 
23 | c1ccc(Cn2nnc3c(N4CCN(Cc5ccc6c(c5)OCO6)CC4)ncnc32)cc1 | 22.6 | 13 µM [rising, partial curve] | 
24 | CCNc1nnc(SCC(=O)c2c(N)n(C3CC3)c(=O)[nH]c2=O)s1 | -7.77 | 18.4 µM [rising, partial curve] | 
25 | COc1ccc(C)cc1NC(=O)COC(=O)c1c(C)noc1C | 20.8 | 3.26 µM [rising, partial curve] | 1.64 µM [rising, partial curve, poor fit]
26 | CCN1CCN(CC(=O)Nc2ccc(C)cc2C)C(=O)C1=O | -19.2 |  | 0.411 µM [rising, full curve, poor fit]
27 | COC(=O)Cn1c(C)c(/C=C/c2cc[n+](C)cc2)c2ccccc21 | -79.1 |  | 20.6 µM [falling, single point]
28 | COc1cc(/C=C/C(=O)OCC(=O)Nc2ccc(S(=O)(=O)N3CCCC3)cc2)ccc1O | 23.1 | 20.6 µM [rising, single point] | 
29 | O=c1oc2ccccc2c(Nc2ccc3ccccc3c2)c1[N+](=O)[O-] | -1.92 |  | 
30 | Cc1ccc2c(Cl)c(C(=O)NCC(c3ccco3)N3CCCC3)sc2c1 (stereo unspecified) | 30.3 |  | 0.291 µM [rising, full curve]
31 | CCCn1c(C)cc(/C=C(\C#N)C(=O)OCC(=O)Nc2cccc(S(N)(=O)=O)c2)c1C | -4.95 | 6.51 µM [rising, single point] | 
32 | Cc1ccc(Nc2nc(-c3ccccc3)cs2)nc1 | 22.5 |  | 
33 | COc1ccccc1OCc1nnc(SCC(=O)N2CCCCC2)o1 | 15.7 | 2.31 µM [rising, partial curve] | 
34 | Nc1cc(=O)[nH]c(SCC(=O)Nc2ccc3c(c2)CCC3)n1 | 27.4 | 0.116 µM [rising, full curve, poor fit] | 0.231 µM [rising, partial curve]
35 | O=C(c1ccc2c(c1)OCCO2)N1CCN(c2ncc(C(F)(F)F)cc2Cl)CC1 | 24.1 |  | 4.11 µM [rising, full curve, poor fit]
36 | O=C(O)c1ccccc1SCC(=O)N1CCCCC1 | -33.7 | 20.6 µM [falling, partial curve] | 1.03 µM [falling, full curve]
37 | c1ccc(CCc2nc(-c3ccc(-n4cccc4)cc3)no2)cc1 | 15.3 |  | 
